# Measurements from PubChem BioAssay AID1347076 (National Center for Advancing Translational Sciences (NCATS), 2019).
# Out of some 400,000 compounds screened, about 13,000 (3.2%) were called active. The shares of active, inactive and inconclusive entries below differ from those in the screen. Calls come from the whole dose curve; as a rule, active = well fitted cell-killing curve with a large enough effect; inconclusive = small, poorly fitted or top-dose-only effect, or effect the other way; inactive = flat fitted curve, though single readings scatter. Potencies of inconclusive entries are doubtful fits and often do not repeat.
# Experiment: qHTS assay for MDR1-selective chemotherapeutics: Primary screen using the drug-selected MDR subline cells KB-V1; note: nearly all actives have a fitted effect of over 60% in size
# Details: KB-V1 MDR cells viability, CellTiter-Glo, 72 h; activity change, negative = cytotoxicity: at 46.1 µM (top of the series)
# How it was run: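 qHTS viability screen in drug-selected KB-V1 MDR cells: 72 h compound treatment at 37 degrees C, ATP luminescence end point.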
# % is set by controls: 0 for no effect and ±100 for the full control effect; potency is the fitted concentration of half-maximal effect.
Structure (SMILES),"activity change, negative = cytotoxicity",Potency
CCOc1ccc(OCCC(=O)OCC(=O)Nc2cccc(S(=O)(=O)N3CCCCC3)c2)cc1,inactive: -25.5%,–
CCc1nc2ccccc2n1CCCCOc1ccc(C)cc1,inactive: -19.6%,–
COCCCNC(=O)CN1C(=O)/C(=C/c2ccccc2C)Sc2ccccc21,–,"inconclusive: 0.0058 µM [rising, full curve, poor fit]"
Cc1cc(C(=O)O)cc(S(=O)(=O)Nc2ccccc2C(=O)NC2CC2)c1C,inactive: 24.2%,–
COc1cccc(C2c3c(oc4ccccc4c3=O)C(=O)N2CCCN2CCOCC2)c1 (stereo unspecified),inactive: -1.53%,–
O=C(C(=O)N1CCCCC1)c1cn(CC(=O)N2CCCCCC2)c2ccccc12,–,"inconclusive: 29.1 µM [cytotoxic, single point]"
O=C(Nc1cc2ccccc2oc1=O)c1ccccc1,–,"inconclusive: 25.9 µM [cytotoxic, single point]"
CCOc1ccc(C(=O)Oc2cc(C)[nH]c(=O)c2[N+](=O)[O-])cc1OCC,inactive: 24.2%,–
CC(=O)c1ccc(NC(=O)Cn2cc(S(=O)(=O)Cc3cccc(Cl)c3)c3ccccc32)cc1,inactive: -5.71%,–
O=S(=O)(c1ccccc1Br)N1CCN(c2nc(-c3cccs3)nc3ccccc23)CC1,inactive: -4.16%,–
CCOc1cc(CNC(=O)c2sc3ncnc(N(C)C4CCCCC4)c3c2C)ccc1OC,–,"inconclusive: 18.4 µM [cytotoxic, partial curve, poor fit]"
CO/N=C(/CNC(=O)c1ccc(F)cc1)c1ccc(Cl)cc1,–,"inconclusive: 0.651 µM [cytotoxic, full curve, poor fit]"
O=C(Nc1cccnc1)c1ccc(-c2cc(Cl)ccc2Cl)o1,–,"inconclusive: 8.2 µM [cytotoxic, partial curve]"
O=C1CC(c2cc(Br)ccc2F)c2cc3c(cc2N1)CCC3 (stereo unspecified),–,"inconclusive: 0.731 µM [cytotoxic, full curve, poor fit]"
CCOC(=O)C1CCCN(CC(=O)Nc2ccc(C(=O)Nc3ccccc3OC)cc2)C1 (stereo unspecified),–,"inconclusive: 16.4 µM [cytotoxic, partial curve, poor fit]"
Cc1ccc(C(C)C)c(OCC(=O)NCC2(N(C)C)CCCCC2)c1,–,"inconclusive: 14.6 µM [cytotoxic, partial curve, poor fit]"
Cc1ccccc1N1CC(c2nc3ccccc3n2CCC2CCCCC2)CC1=O (stereo unspecified),inactive: 0.238%,–
O=C(c1ccc(Cn2cc([N+](=O)[O-])cn2)o1)N1CCCC1,inactive: -1.32%,–
COc1ccc2[nH]c3c(c2c1)CCN1C(=O)N([C@@H](C)C(=O)NCc2ccc(C)cc2)C(=O)[C@]31C,–,"inconclusive: 8.2 µM [rising, partial curve]"
O=C(COc1ccc(Cl)cc1)Nc1ccc(-c2nc3ccccc3s2)c(O)c1,–,"inconclusive: 13 µM [rising, single point]"
COc1ccc(NC(=O)c2ccc(CNc3c(NC4CCCCC4)c(=O)c3=O)cc2)c(OC)c1,–,"inconclusive: 29.1 µM [rising, single point]"
O=C(Nc1ccccc1Cc1ccccc1)c1oc2ccccc2c1COc1ccccc1,–,"inconclusive: 13 µM [cytotoxic, partial curve]"
COc1ccc(C(=O)C/C(=C\C(=O)c2ccc(C)cc2)c2ccccc2)cc1,–,"inconclusive: 20.6 µM [cytotoxic, single point]"
Cc1ccc(-c2nnc(SCc3ccccc3C)o2)cc1,–,"inconclusive: 29.1 µM [rising, single point]"

# Record cards, from the list above.
# Cc1ccc(C(C)C)c(OCC(=O)NCC2(N(C)C)CCCCC2)c1 as listed: Potency: inconclusive: 14.6 µM [cytotoxic, partial curve, poor fit]
# CCOc1ccc(OCCC(=O)OCC(=O)Nc2cccc(S(=O)(=O)N3CCCCC3)c2)cc1 as listed: activity change, negative = cytotoxicity: inactive: -25.5%
# COc1ccc2[nH]c3c(c2c1)CCN1C(=O)N([C@@H](C)C(=O)NCc2ccc(C)cc2)C(=O)[C@]31C as listed: Potency: inconclusive: 8.2 µM [rising, partial curve]

# (list continues)

Structure (SMILES),"activity change, negative = cytotoxicity",Potency
CCN(C[C@H]1N[C@@](CC)(C(=O)OC)[C@H]2C(=O)N(C)C(=O)[C@@H]12)S(=O)(=O)c1ccc(C(C)(C)C)cc1,inactive: -19.4%,–
CCc1ccccc1NC(=O)c1c(NC(=O)c2ccccc2)sc2c1CCCC2,inactive: 17%,–
CCCCCCn1c(C(C)NC(=O)c2ccco2)nc2ccccc21 (stereo unspecified),–,"inconclusive: 2.59 µM [cytotoxic, full curve, poor fit]"
C=C(C)C(=O)Nc1cccc(C2=NOC3(C2)C[C@@H](C(N)=O)N(C(=O)CCCCC)C3)c1 (stereo partly specified),–,"inconclusive: 11.6 µM [rising, partial curve, poor fit]"
CCCC(=O)C1C(=O)CC(CC(C)SCC)CC1=O (stereo unspecified),–,"inconclusive: 20.6 µM [cytotoxic, single point]"
Cc1ccccc1NCC(=O)N=Nc1c(O)[nH]c2ccc([N+](=O)[O-])cc12,–,"inconclusive: 14.6 µM [rising, single point]"
Cc1cccc(-n2c(-c3ccncc3)n[nH]c2=S)c1,inactive: -14.4%,–
Cc1cccc(-c2nc(CSCC(=O)N3CCN(Cc4ccc5c(c4)OCO5)CC3)c(C)o2)c1,–,"inconclusive: 16.4 µM [cytotoxic, single point]"
CC1CC(=O)Nc2ccccc2N1C(=O)CSc1ncnc2sccc12 (stereo unspecified),–,"inconclusive: 5.8 µM [rising, single point]"
Cc1c(C(c2ccc(F)cc2)c2c(C)n(C)n(-c3ccccc3)c2=O)c(=O)n(-c2ccccc2)n1C,inactive: -2.75%,–
O=C(CSc1ccc(-c2ccccc2)nn1)c1cccs1,–,"inconclusive: 32.6 µM [cytotoxic, partial curve, poor fit]"
Cc1ccc(-n2c(C)cc3c2CC(C)(C)CC3=O)cc1C,inactive: -23.8%,–
CC1CN(c2nc(N(C)c3ccccc3)nc(N)c2[N+](=O)[O-])CC(C)O1 (stereo unspecified),–,"inconclusive: 14.6 µM [cytotoxic, partial curve, poor fit]"
O=C(CCCN1C(=O)CSc2ncccc21)N1CCN(c2cccc(C(F)(F)F)c2)CC1,–,"inconclusive: 20.6 µM [cytotoxic, partial curve, poor fit]"
CCN(Cc1ccccc1)S(=O)(=O)c1nc2nc(C)c(C)c(C)n2n1,–,active: 18.4 µM
CC1CN(CCOc2ccc(Cl)c(Cl)c2)CC(C)O1 (stereo unspecified),inactive: -1.89%,–
Cc1nn(Cc2ccccc2)c(C)c1CNC(=O)CN=C1NS(=O)(=O)c2ccccc21,–,"inconclusive: 29.1 µM [rising, single point]"
CCc1ccc(NC(=O)CSc2nncn2-c2cccnc2)cc1,–,"inconclusive: 8.2 µM [cytotoxic, partial curve]"
Cc1cc(Nc2ccc3c(c2)OCCO3)c2cc(Cl)ccc2n1,–,active: 14.6 µM
CN(Cc1c(F)cccc1Cl)C(=O)CCc1c[nH]c2ccccc12,inactive: -1.49%,–
O=C(O)c1ccc(COCC(F)(F)C(F)F)o1,–,"inconclusive: 7.31 µM [rising, partial curve]"
CCOc1cc(C(=O)Nc2ccc(N3CCOCC3)cc2)cc(Br)c1OC,–,"inconclusive: 6.51 µM [cytotoxic, partial curve]"
O=C(Cn1cc(S(=O)(=O)Cc2ccccc2)c2ccccc21)Nc1ccccc1,–,active: 18.4 µM
COCCNc1nnc(SCC(=O)Nc2cc(-c3ccccc3)nn2-c2ccccc2)s1,–,active: 16.4 µM

Structure (SMILES),"activity change, negative = cytotoxicity",Potency
C=CCN(C)CC/C=C1\c2ccccc2CSc2ccccc21,inactive: -8.85%,–
Cc1ccc(NC(=O)Cn2cnc3sc(C(=O)O)c(C)c3c2=O)cc1Cl,inactive: 8.23%,–
O=C(CSc1nnc(CNC(=O)c2cccc(F)c2)n1-c1ccccc1)Nc1ccccc1F,inactive: 3.05%,–
Cc1cccc(N(CC(=O)NCCc2ccccc2)C(=O)CCC(=O)Nc2ccccn2)c1C,–,"inconclusive: 29.1 µM [cytotoxic, single point]"
CCOc1cc(CNc2ccc(O)cc2)ccc1OCc1ccc(Cl)cc1Cl,–,"inconclusive: 23.1 µM [cytotoxic, single point]"
O=C(COC(=O)C1CC1)Nc1ccccc1Sc1ccccc1,–,"inconclusive: 20.6 µM [rising, single point]"
COc1cc(NC(=O)CN(c2ccc(C)cc2)S(=O)(=O)c2cccc3nonc23)cc(OC)c1,inactive: -25.7%,–
CCOC(=O)[C@]12CCCC=C1N(Cc1ccc(Cl)cc1Cl)C(=O)[C@H](CC(=O)NCc1ccc(C)o1)C2,–,"inconclusive: 16.4 µM [cytotoxic, partial curve]"
O=C1OC(c2ccc(Cl)cc2)/C(=C(/O)c2ccccc2)C1=O (stereo unspecified),inactive: 5.27%,–
COc1ccc(CN(C)Cc2nc(Cc3cccc(F)c3)no2)c2cccnc12,–,active: 1.84 µM
O=C(NC(Cc1ccccc1)C(=O)O)/C(=C\c1ccc(Cl)cc1)NC(=O)c1ccccc1 (stereo unspecified),–,"inconclusive: 2.59 µM [rising, partial curve, poor fit]"
Cn1c(CNc2ccc(F)cc2)nc2ccccc21,inactive: -18.8%,–
CSc1nnc2c3cc(F)ccc3n(Cc3ccccc3)c2n1,–,"inconclusive: 1.84 µM [cytotoxic, full curve]"
COc1ccc(S(=O)(=O)N2CCN(C)CC2)cn1,–,"inconclusive: 20.6 µM [rising, single point]"
O=C(c1c(F)cccc1F)N1CCCC(c2nc(-c3cccs3)no2)C1 (stereo unspecified),inactive: 7.17%,–
CC(Oc1ccc(Br)cc1)C(=O)NCCCN1CCCC1=O (stereo unspecified),inactive: -8.26%,–
O=[N+]([O-])c1ccc(Sc2ccc(Cl)c(Cl)c2)nc1,–,"inconclusive: 16.4 µM [cytotoxic, single point]"
CC(C)=C1C2CCC1C1C(=O)N(NC(=O)c3ccco3)C(=O)C21 (stereo unspecified),–,"inconclusive: 20.6 µM [rising, single point]"
O=[N+]([O-])c1cccc(N/N=C/c2cc([N+](=O)[O-])ccc2O)c1,inactive: 3.94%,–
CCOC(=O)Cn1c(=NC(=O)C(C)C)sc2c(C)cc(C)cc21,inactive: -12.4%,–
Cc1nn(-c2ccccc2)c(C)c1C(=O)OCC(=O)Nc1ccccc1,–,active: 10.3 µM
Cc1cc(NC(=O)CSCC(=O)N2CCN(c3cccc(C(F)(F)F)c3)CC2)no1,–,"inconclusive: 16.4 µM [cytotoxic, partial curve, poor fit]"
COc1ccc(C(c2nnnn2Cc2ccccc2)N2CCN(C/C=C/c3ccccc3)CC2)cc1 (stereo unspecified),–,"inconclusive: 20.6 µM [cytotoxic, partial curve]"
